Results: US8470548B2, “Diagnosis of depression” (Intra-Cellular Therapies, Inc., priority 2006, dated 2013)
For at least one compound, name, drawing or mass did not settle the structure.

Protein sequences, listed by entry. Tags and fused reporters are not part of them.
UniProt P28222, whole entry: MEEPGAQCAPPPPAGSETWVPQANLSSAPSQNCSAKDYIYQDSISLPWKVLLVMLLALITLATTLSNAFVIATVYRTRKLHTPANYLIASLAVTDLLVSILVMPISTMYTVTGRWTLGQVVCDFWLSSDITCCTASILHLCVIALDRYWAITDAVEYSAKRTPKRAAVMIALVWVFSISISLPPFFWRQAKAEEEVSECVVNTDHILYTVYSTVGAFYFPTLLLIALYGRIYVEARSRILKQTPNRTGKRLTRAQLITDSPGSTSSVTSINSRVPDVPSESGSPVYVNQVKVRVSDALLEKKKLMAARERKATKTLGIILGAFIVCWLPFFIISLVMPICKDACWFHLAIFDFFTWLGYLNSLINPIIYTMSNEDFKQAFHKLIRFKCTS

Key:
5-HT1B receptor = molecular target: T1, 5-HT1B receptor (Homo sapiens, UniProt P28222); experiment: cAMP measurements in COS 7 cells; assay type: cell-based; settings: with or without p11
T1 construct: V5 (C); expressed in transfected cells; host or cells: COS 7
Experimental: COS 7 cells grown in DMEM medium are transfected with 5-HT1B receptors and/or p11. Thirty six hours later the cells are pretreated with theophylline (5 mM) and pargyline (10 μM) for 15 min. Vehicle or forskolin (10 μM) with or without serotonin (10 μM), is then added for another 15 minutes. At the end of the treatment, the drug-containing medium is removed, the wells rinsed in PBS and the cells harvested. cAMP formation is quantitated by a direct cAMP enzyme immunoassay kit according to the manufacturers instructions.

p11 = experiment: Doxycycline treatment of transgenic mice overexpressing p11; assay type: in vivo; settings: doxycycline 50 mg/l in drinking water for 18 days

SMILES	cAMP responses to forskolin (5-HT1B receptor)	p11 expression (p11)	thigmotaxis, immobility, or horizontal activities (p11)
C=C[C@@]1(C)CC(=O)[C@]2(O)[C@@]3(C)[C@@H](O)CCC(C)(C)[C@@H]3[C@H](O)[C@H](OC(C)=O)[C@@]2(C)O1 [forskolin]	no significant difference		
C[C@H]1c2cccc(O)c2C(=O)C2=C(O)[C@]3(O)C(=O)C(C(N)=O)=C(O)[C@@H](N(C)C)[C@@H]3[C@@H](O)[C@@H]21 [doxycycline]		normalized p11 expression	no significant alterations
